Results are given in words; binding and its absence hold for the method and conditions named. In cells and extracts the contact can be indirect. Some binding calls cover weakened binding; strength is not graded here.

Chains of the proteins cited; added tags and fusions are not shown.
UniProt Q9NP97: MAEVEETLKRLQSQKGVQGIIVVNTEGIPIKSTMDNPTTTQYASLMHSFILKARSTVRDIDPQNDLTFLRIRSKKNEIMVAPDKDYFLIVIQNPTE
UniProt Q9Y6G9: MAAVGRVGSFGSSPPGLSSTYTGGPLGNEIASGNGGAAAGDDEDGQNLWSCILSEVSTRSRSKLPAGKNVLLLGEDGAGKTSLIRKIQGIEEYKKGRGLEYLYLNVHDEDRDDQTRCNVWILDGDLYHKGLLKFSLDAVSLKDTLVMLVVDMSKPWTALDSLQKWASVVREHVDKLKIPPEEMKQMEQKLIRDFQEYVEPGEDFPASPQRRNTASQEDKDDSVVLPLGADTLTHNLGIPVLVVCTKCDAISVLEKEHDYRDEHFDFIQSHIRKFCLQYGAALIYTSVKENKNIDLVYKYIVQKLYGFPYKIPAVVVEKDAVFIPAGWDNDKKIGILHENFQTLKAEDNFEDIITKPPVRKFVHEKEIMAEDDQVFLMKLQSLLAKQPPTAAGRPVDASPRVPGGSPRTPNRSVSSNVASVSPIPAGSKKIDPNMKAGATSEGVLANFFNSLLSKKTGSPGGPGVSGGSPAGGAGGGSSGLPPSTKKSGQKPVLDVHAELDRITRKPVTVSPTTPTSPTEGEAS
UniProt Q9UJ70: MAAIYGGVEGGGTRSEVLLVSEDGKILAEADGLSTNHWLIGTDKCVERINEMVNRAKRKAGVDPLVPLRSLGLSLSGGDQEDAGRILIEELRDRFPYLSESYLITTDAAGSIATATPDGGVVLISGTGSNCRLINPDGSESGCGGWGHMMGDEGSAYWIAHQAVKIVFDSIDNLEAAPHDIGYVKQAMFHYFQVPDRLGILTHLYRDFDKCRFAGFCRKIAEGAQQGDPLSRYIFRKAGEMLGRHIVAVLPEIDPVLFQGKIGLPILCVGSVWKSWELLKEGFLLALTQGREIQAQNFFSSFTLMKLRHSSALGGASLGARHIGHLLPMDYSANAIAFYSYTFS

The text below walks through data of paper PMC7427805.

Holding throughout (test): pull-down; His-tagged bait expressed in HEK293T cells for 48 h; lysate (25 mM Tris, 150 mM NaCl, 1.0 mM EDTA, 1% NP-40, 5% glycerol, pH 7.4) bound to Ni-NTA magnetic silica resin, washed four times, eluted with imidazole, immunoblotted; called co-immunoprecipitation in the legend; in Fig. 5C cells were also co-transfected with pQ74 and pDsRed2 or pDsRed2-NAGK
A general note: A western blot detects proteins with antibodies after separation by electrophoresis.

The target of assay [1] is His-tagged DYNLRB1 (pENTER-CMV-DYNLRB1) (UniProt Q9NP97).
In assay [2] the target is His-tagged DYNC1LI1 (pENTER-CMV-DYNC1LI1) (UniProt Q9Y6G9).
Assay [3] concerns the target His-tagged NAGK (N-acetylglucosamine kinase; pENTER-CMV-NAGK) (UniProt Q9UJ70).

As to “NAGK (N-acetylglucosamine kinase) of HEK293T cells (from UniProt Q9UJ70 1-344)”, the binding result in assay [1] and in assay [2] was “binds” each time.
Regarding “DsRed2-NAGK (pDsRed2-tagged wild-type NAGK) (from UniProt Q9UJ70 1-344)”, in assay [2], the binding entry is recorded as “binds”.
For “dynein light chain roadblock type 1 (DYNLRB1), endogenous (from UniProt Q9NP97 1-96)”, in assay [3], the binding result is listed as “binds”.
Turning to “dynein light intermediate chain 1 (DYNC1LI1), endogenous (from UniProt Q9Y6G9 1-523)”, in assay [3], the binding entry is on record as “binds”.
